Results from doi:10.1101/431023.
No constants are given. Whether binding was seen depends on the method and setting. Binding seen in cells or lysates may run through a third protein. Here binding means that the protein was enriched with, or labelled near, the bait; the list need not be complete. Where a sequence is shown, tags or fusion partners need not be part of it.

T1: 3xFLAG-BirA*-tagged TCF7L1 at the endogenous TCF7L1 locus (mouse (endogenous in mESCs)) (UniProt Q9Z1J1)
T1 sequence: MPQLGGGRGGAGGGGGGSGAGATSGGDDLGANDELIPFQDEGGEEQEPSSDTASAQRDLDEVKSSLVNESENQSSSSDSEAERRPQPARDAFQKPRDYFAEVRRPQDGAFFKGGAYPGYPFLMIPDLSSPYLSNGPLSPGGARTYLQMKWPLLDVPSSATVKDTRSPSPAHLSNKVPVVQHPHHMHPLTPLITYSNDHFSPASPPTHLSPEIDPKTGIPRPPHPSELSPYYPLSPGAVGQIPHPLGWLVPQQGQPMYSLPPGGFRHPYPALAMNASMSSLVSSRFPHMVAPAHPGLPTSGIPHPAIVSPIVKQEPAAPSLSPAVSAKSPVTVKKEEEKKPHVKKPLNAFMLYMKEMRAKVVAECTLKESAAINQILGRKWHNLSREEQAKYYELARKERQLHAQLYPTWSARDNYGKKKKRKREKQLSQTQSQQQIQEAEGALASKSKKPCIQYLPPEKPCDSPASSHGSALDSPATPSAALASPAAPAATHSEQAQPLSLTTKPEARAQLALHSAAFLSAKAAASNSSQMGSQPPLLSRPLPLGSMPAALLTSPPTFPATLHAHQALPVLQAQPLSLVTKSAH

T2: dox-inducible 3xFLAG-BirA*-tagged TCF7L1 in the Rosa26 locus (UniProt Q9Z1J1)
T2 sequence: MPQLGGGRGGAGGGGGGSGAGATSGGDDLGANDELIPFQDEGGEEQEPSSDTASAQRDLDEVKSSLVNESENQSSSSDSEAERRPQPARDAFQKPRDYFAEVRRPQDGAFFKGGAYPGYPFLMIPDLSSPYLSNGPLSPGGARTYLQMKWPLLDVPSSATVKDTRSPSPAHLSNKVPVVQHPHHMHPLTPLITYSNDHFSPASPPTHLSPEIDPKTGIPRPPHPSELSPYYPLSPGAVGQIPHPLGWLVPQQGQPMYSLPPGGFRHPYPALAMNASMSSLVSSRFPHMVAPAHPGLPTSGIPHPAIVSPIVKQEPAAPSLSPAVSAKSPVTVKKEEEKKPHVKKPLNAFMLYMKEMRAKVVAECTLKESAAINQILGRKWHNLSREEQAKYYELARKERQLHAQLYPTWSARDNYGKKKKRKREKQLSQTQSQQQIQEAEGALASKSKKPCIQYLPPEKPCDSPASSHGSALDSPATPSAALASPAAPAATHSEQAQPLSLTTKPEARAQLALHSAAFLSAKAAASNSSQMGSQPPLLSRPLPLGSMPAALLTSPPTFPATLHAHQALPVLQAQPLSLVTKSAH


How the values were obtained:
[1] = molecular target: T1, 3xFLAG-BirA*-tagged TCF7L1 at the endogenous TCF7L1 locus (mouse (endogenous in mESCs)); experiment: proximity labelling
[2] = molecular target: T2, dox-inducible 3xFLAG-BirA*-tagged TCF7L1 in the Rosa26 locus; experiment: proximity labelling

Binder	binding [1]	binding [2]
TBL1X (protein, UniProt Q9QXE7 1-527) MSITSDEVNFLVYRYLQESGFSHSAFTFGIESHISQSNINGTLVPPAALISILQKGLQYVEAEISINEDGTVFDGRPIESLSLIDAVMPDVVQTRQQAFREKLAQQQANAAAAAAAAAATATSTAATTPAAAAQQNPPKNGEATVNGEENGAHAINNHSKPMEIDGDVEIPPSKATVLRGHESEVFICAWNPVSDLLASGSGDSTARIWNLNENSNGGSTQLVLRHCIREGGHDVPSNKDVTSLDWNSDGTLLATGSYDGFARIWTEDGNLASTLGQHKGPIFALKWNKKGNYILSAGVDKTTIIWDAHTGEAKQQFPFHSAPALDVDWQNNTTFASCSTDMCIHVCRLGCDRPVKTFQGHTNEVNAIKWDPSGMLLASCSDDMTLKIWSMKQDACVHDLQAHSKEIYTIKWSPTGPATSNPNSNIMLASASFDSTVRLWDVERGVCIHTLTKHQEPVYSVAFSPDGKYLASGSFDKCVHIWNTQSGSLVHSYRGTGGIFEVCWNARGDKVGASASDGSVCVLDLRK	binds	binds
TBL1XR1 (protein, UniProt Q8BHJ5 1-514) MSISSDEVNFLVYRYLQESGFSHSAFTFGIESHISQSNINGALVPPAALISIIQKGLQYVEAEVSINEDGTLFDGRPIESLSLIDAVMPDVVQTRQQAYRDKLAQQHAAAAAAAAAATNQQGSAKNGENTANGEENGAHTIANNHTDMMEVDGDVEIPSNKAVVLRGHESEVFICAWNPVSDLLASGSGDSTARIWNLSENSTSGPTQLVLRHCIREGGQDVPSNKDVTSLDWNSEGTLLATGSYDGFARIWTKDGNLASTLGQHKGPIFALKWNKKGNFILSAGVDKTTIIWDAHTGEAKQQFPFHSAPALDVDWQSNNTFASCSTDMCIHVCKLGQDRPIKTFQGHTNEVNAIKWDPTGNLLASCSDDMTLKIWSMKQDNCVHDLQAHNKEIYTIKWSPTGPGTNNPNANLMLASASFDSTVRLWDVDRGICIHTLTKHQEPVYSVAFSPDGRYLASGSFDKCVHIWNTQTGALVHSYRGTGGIFEVCWNAAGDKVGASASDGSVCVLDLRK	binds	binds
TRIM24 (protein, UniProt Q64127 1-1051) MEVAVEKAAAAAAPAGGPAAAAPSGENEAESRQGPDSESGGEASRLNLLDTCAVCHQNIQSRVPKLLPCLHSFCQRCLPAPQRYLMLTAPALGSAETPPPAPAPAPAPGSPAGGPSPFATQVGVIRCPVCSQECAERHIIDNFFVKDTTEVPSSTVEKSNQVCTSCEDNAEANGFCVECVEWLCKTCIRAHQRVKFTKDHTVRQKEEVSPEAVGVTSQRPVFCPFHKKEQLKLYCETCDKLTCRDCQLLEHKEHRYQFIEEAFQNQKVIIDTLITKLMEKTKYIKYTGNQIQNRIIEINQNQKQVEQDIKVAIFTLMVEINKKGKALLHQLESLAKDHRMKLMQQQQEVAGLSKQLEHVMHFSKWAVSSGSSTALLYSKRLITYRLRHLLRARCDASPVTNTTIQFHCDPSFWAQNIINLGSLVIEDKESQPQMPKQNPVVEQSSQPPGGLPSNQLSKFPTQISLAQLRLQHIQQQVMAQRQQVQRRPAPVGLPNPRMQGPIQQPSISHQHPPPRLINFQNHSPKPNGPVLPPYPQQLRYSPSQNVPRQTTIKPNPLQMAFLAQQAIKQWQISSVQAPPTTASSSSSTPSSPTITSAAGYDGKAFSSPMIDLSAPVGGSYNLPSLPDIDCSSTIMLDNIARKDTGVDHAQPRPPSNRTVQSPNSSVPSPGLAGPVTMTSVHPPIRSPSASSVGSRGSSGSSSKPAGADSTHKVPVVMLEPIRIKQENSGPPENYDFPVVIVKQESDEESRPQNTNYPRSILTSLLLNSSQSSASEETVLRSDAPDSTGDQPGLHQENSSNGKSEWSDASQKSPVHVGETRKEDDPNEDWCAVCQNGGELLCCEKCPKVFHLTCHVPTLTNFPSGEWICTFCRDLSKPEVDYDCDVPSHHSEKRKSEGLTKLTPIDKRKCERLLLFLYCHEMSLAFQDPVPLTVPDYYKIIKNPMDLSTIKKRLQEDYCMYTKPEDFVADFRLIFQNCAEFNEPDSEVANAGIKLESYFEELLKNLYPEKRFPKVEFRHEAEDCKFSDDSDDDFVQPRKKRLKSTEDRQLLK		binds
CPEB4 (protein, UniProt Q7TN98 1-729) MGDYGFGVLVQSNTGNKSAFPVRFHPHLQPPHHHQNATPNPAAFINNNTAANGSSAGSAWLFPAPATHNIQDEILGSEKAKSQQQEQQDPLEKQQLSPSPGQEAGILPETEKAKAEENPGDSSSENSNGKEKLRIESPVLTGFDYQEATGLGTSTQPLTSSASSLTGFSNWSAAIAPSSSTIINEDASFFHQGGVPGASANNGALLFQNFPHHVSPGFGGSFSPQIGPLSQHHPHHPHFQHHHSQHQQQRRSPASPHPPPFTHRSAAFNQLPHLANNLNKPPSPWSSYQSPSPTPSSSWSPGGGGYGGWGASQGRDHRRGLNGGITPLNSISPLKKNFASNHIQLQKYARPSSAFAPKSWMEDSLNRADNIFPFPERPRTFDMHSLESSLIDIMRAENDSIKGRLNYSYPGSDSSLLINARTYGRRRGQSSLFPMEDGFLDDGRGDQPLHSGLGSPHCFTHQNGERVERYSRKVFVGGLPPDIDEDEITASFRRFGPLIVDWPHKAESKSYFPPKGYAFLLFQDESSVQALIDACIEEDGKLYLCVSSPTIKDKPVQIRPWNLSDSDFVMDGSQPLDPRKTIFVGGVPRPLRAVELAMIMDRLYGGVCYAGIDTDPELKYPKGAGRVAFSNQQSYIAAISARFVQLQHGEIDKRVEVKPYVLDDQLCDECQGARCGGKFAPFFCANVTCLQYYCEYCWAAIHSRAGREFHKPLVKEGGDRPRHISFRWN	binds	
BCL9 (protein, UniProt Q9D219 1-1425) MHPSNPKVRSSPSGNTQSSPKSKQEVMVRPPTVMSPSGNPQLDSKFSNQGKPGGSASQSQPSPCDSKSGGHTPKALPGPGGSMGLKNGAGNGAKGKGKRERSISADSFDQRDPGTPNDDSDIKECNSADHIKSQESQHTPHSMTPSTATAPRSSTPSHGQTPAPEPISAQKTPAKVVYVFSTEMANKAAEAVLKGQVETIVSFHIQNISNSKSERSTAPLNTQIPTLRNDPKPLPQQPPAPANQDQNSSQNARLQPTPPIQAPAPKPTAAPRPLDRESPGVENKLIPPVGSPGSSTPLPPDGTGPNSTPNNRAVTPVSQGSNSSSADPKAPPPPPVSGGEPPTLGENPDGLSQEQLEHRERSLQTLRDIQRMLFPDEKEFTAGQTGGPQQNTGVLDGPQKKPDGPIQAMMSQSQSLGKGPGPRTDVGAPFGPQGHRDVPFSPDEMVPPNMSSQSGPIGPDHLDHMTPEQIAWLKLQQEFYEEKRRKQEQVVVQQCSLQDMMVHQHGPRGVVRGPPPPYQMAPGEGWAPGAEPFPDGINISHSLPPRGMAPHPNMPGSQMRLPGFAGMINSEMEGPNVPNPASRPGLSGVSWPDDVPKIPDGRNFPPGQGVFSGPGRGERFPNPQGLSEEMFQQQLAEKQLALPPGMSMEGIRPGMEMNRMIPGSQRHMEPGSNPIFPRIPVEGPLSPSRGDFPKGMPPQIGPGRELEFGMVPGGMKGEVNLNVNMGSSSQMIPQKMREAGAGPEEMMKLRPGSSEMLPAQQKMVPLPFGEHPQQEYGVGPRPFLPMSQGPGSNSGLRNLREPIGPDQRTNSRLSHMPPLPLNPSSNPTSLSTAPPVQRGLGRKPLDISVAGSQVHSPGINPLKSPTMHQVQSPMLGSPSGNLKSPQTPSQLAGMLAGPAAAASIKSPPVLGSAAASPVHLKSPSLPAPSPGWTSSPKPPLQSPGIPPNHKAPLTMASPAMLGSVESGGPPPPTASQPASVNIPGSLPSSTPYPMPPEPTLSQNPLSIMMSRMSKFAMPSSTPLYHDAIKTVASSDDDSPPARSPNLPSMNSMPGMGINTQNPRISGPNPVVPMPTLSPMGMTQPLSHSNQMPSPNAMGPSIPPHGVPMGPGLMSHNPIMGHGSQEPPMVPQGRMGFPQGFPPVQSPPQQVPFPHNGPTGGQGNFPGGIGFPGEGPLGRPSNLPQSSADPALCKPGGPGAPDSFTVLGNSMPSVFTDPDLQEVIRPGATGIPEFDLSRIIPSEKPSQTLQYFPRGEVPGRKQPQGPGPGFSHMQGMMSDQAPRMGLALPGMGGPGPVGTPDIPLGTSPSMPGHNPMRPPAFLQQGMMGPHHRMMSPAQSTVPGPATLMTNPAAAVGMIPGKDRGPAGLYTHPGPVGSPGMMMSMQGMMGPQQNIMIPPQMRPRGMAADVGMGGFSQGPGNPGNMMF		binds
ZFP281 (protein, UniProt Q99LI5 1-893) MKIGSGFLSGGGGPSSSGGSGSGGSSGSASGGSGGGRRAEMEPTFPQSMVMFNHRLPPVTSFTRPAGTAAPPPQCVLSSSTSAAPAAEPPPPPAPDMTFKKEPAASAAAFPSQRTSWGFLQSLVSIKQEKPADPEEQPSHHHHHHHHYGGLFAGAEERSPGLGGGEGGSHGVIQDLSLLHQHAQQQPAQHHRDVLLSSGSRTDEHGNQEPKQDANVKKAKRPKPESQGIKAKRKPSASSKPLVGEGEGAVLSPSQKPHICDHCSAAFRSSYHLRRHVLIHTGERPFQCSQCSMGFIQKYLLQRHEKIHSREKPFGCDQCSMKFIQKYHMERHKRTHSGEKPYKCDTCQQYFSRTDRLLKHRRTCGEAIAKGAASAEPGSSNHNSMGNLAVLSQGNTSSSRRKSKSKSIAIENKEHKTGKTNESQMSNNINMQSYSVEMPTVSTSGSIIGTGIDELQKRVPKLIFKKGSRKNADKSYLNFVSPLPDVVGQKSLSGKPGGSLGIVSNNSVETISLLQSTSGKQGPISSNYDDAMQFSKKRRYLPTASSNSAFSINVGHMVSQQSVIQSAGVSVLDNEAPLSLIDSSALNAEIKSCHDKSGIPDEVLQSILDQYSGKSETQKEDPFNLTEPRVDLHTSGEHSELVQEENLSPGTQTPSNDKTSMLQEYSKYLQQAFEKSTNAGFTLGHGFQFVSLSSPLHNHTLFPEKQIYTTSPLECGFGQSVTSVLPSSLPKPPFGMLFGSQPGLYLSALDATHQQLTPSQELDDLIDSQKNLETSSAFQSSSQKLTSQKEQQKNLESSTSFQIPSQELASQIDPQKDIEPRTTYQIENFAQAFGSQFKSGSRVPMTFITNSNGEVDHRVRTSVSDFSGYTNMMSDVSEPCSTRVKTPTSQSYR		binds
